For the data set, the target named is T1, His6-MrpC (UniProt Q1D244).
T1 sequence (looked up, limits assumed): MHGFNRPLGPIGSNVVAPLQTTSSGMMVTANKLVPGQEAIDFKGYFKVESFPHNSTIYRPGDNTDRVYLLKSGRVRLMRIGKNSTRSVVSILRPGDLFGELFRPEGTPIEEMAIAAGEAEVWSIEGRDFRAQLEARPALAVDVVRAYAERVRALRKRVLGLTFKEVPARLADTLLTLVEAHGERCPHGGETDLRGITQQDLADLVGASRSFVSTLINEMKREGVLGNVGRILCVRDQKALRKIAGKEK
In words: EMSA. To be noted: 10 mM Tris pH 8.0, 50 mM KCl, 1 mM DTT, 10 ug/mL BSA, 10% glycerol, 0.5 ug herring sperm DNA in 10 ul, 15 min at 20 C, 5% PAGE in 0.5x TBE, recombinant protein, protein details: His6, label: Hex, probe letters rebuilt from the primers and the genome.

The mark [1] stands for this setting: 10 nM probe, 1.0 uM MrpC, only one shifted band (WT two).

Construct, isoform or probe ends are uncertain for at least one entry. A negative result means that nothing was seen under these conditions. Tags and fusion partners may be left off the protein sequences shown. Weaker means in comparison with the reference protein, sequence or condition of that experiment.

The results in this text go back to paper PMC8844925.

For the sequence “GCACCACTCCGCTTCATTCGGCTGCTGCGAAATGGCAGGCCGAAAGTCTCGGGTGCCACGCCCTTCCGTGTGCTCCCAACGCCCCTGCGCCCCACGCGCACCCGCCGCCGCCCGGTCCTGCAAGCACACCCCAACGCCCACAACCTTCACCCGAGACCTCCGGCTGCCAAGCCTGTCAGGCTCCGCGAGACGAGGCCTTTCCCCGTCATCCGTGAGCATGGTGCGGGAGCAAGCACCATGCCCCGCGGTGGGGGAGGGCAGTCAGAGTGTTTCCGGGCGGTTGCACACCCTCTGCGTCGCCCTGTTGTACAGGGTCGGAAGACGTTGCAGCGCGCTGAGGGGCAAACCGGTAGATATTCCCGTGCGCGGGCGATTCCTCGGTGGCCGCGCGACGGGTCGCTAGCGTCGGGTGCTGAACTGCATGCGGCGGCCGCCCATGGGGGGCATGACCGGCGGCGGA (double strand) [PdmxB BS3*]”, the binding result (6 nM probe, bound as WT) was “binds”.

In the case of “GCACCACTCCGCTTCATTCGGCTGCTGCGAAATGGCAGGCCGAAAGTCTCGGGTGCCACGCCCTTCCGTGTGCTCCCAACGCCCCTGCGCCCCACGCGCACCCGCCGCCGCCCGGTCCTGCAAGCACACCCCAACGCCCACAACCTTCACCCGAGACCTCCGGCTGCCAAGCCTGTCAGGCTCCGCGAGACGAGGCCTTTCCCCGTCATCCGTGAGCATGGTGCGGGAGCAAGCACCATGCCCCGCGGTGGGGGAGGGCAGTCAGAGTGTTTCCGGGCGGTTGCACACCCTCTGCGTCGCCCTGTTGTACAGGGTCGGAAGACGTTGCAGCGCGCTGAGGGGCAAACCGGTAGATATTCCCGTGCGCGGGCGGACGCTCGGTGGCCGCGCGACGGGTCGCTAGCGTCGGGTGCTGAACTGCATGCGGCGGCCGCCCATGGGGGGCATGACCGGCGGCGGA (double strand) [PdmxB WT]”, under “6 nM probe, one shifted band”, the binding result is recorded as “binds”.

Consider “GCACCACTCCGCTTCATTCGGCTGCTGCGAAATGGCAGGCCGAAAGTCTCGGGTGCCACGCCCTTCCGTGTGCTCCCAACGCCCCTGCGCCCCACGCGCACCCGCCGCCGCCCGGTCCTGCAAGCACACCCCAACGCCCACAACCTTCACCCGAGACCTCCGGCTGCCAAGCCTGTCAGGCTCCGCGAGACGAGGCCTTTCCCCGTCATCCGTGAGCATGGTGCGGGAGCAAGCACCATGCCCCGCGGTGGGGGAGGGCAGTCAGAGTGTTTCCGGGCGGTTGCACACCCTCTGCGTCGCCCTGTTGTACAGGGTCGGAAGACGTTGCAGCGCGCTGAGGGGCAAACCGGTAGATATTCCCGTGCGCGGGCGGACGCTCGGTGGCCGCGCGACGGGTCGCTAGGAATGGGTGCTGAACTGCATGCGGCGGCCGCCCATGGGGGGCATGACCGGCGGCGGA (double strand) [PdmxB BS4*]”, for which, for the setting “6 nM probe”, the binding result is listed as “no binding”. “GCACCACTCCGCTTCATTCGGCTGCTGCGAAATGGCAGGCCGAAAGTCTCGGGTGCCACGCCCTTCCGTGTGCTCCCAACGCCCCTGCGCCCCACGCGCACCCGCCGCCGCCCGGTCCTGCAAGCCTTACCCAACGCCCACAACCTTCACCCGAGACCTCCGGCTGCCAAGCCTGTCAGGCTCCGCGAGACGAGGCCTTTCCCCGTCATCCGTGAGCATGGTGCGGGAGCAAGCACCATGCCCCGCGGTGGGGGAGGGCAGTCAGAGTGTTTCCGGGCGGTTGCACACCCTCTGCGTCGCCCTGTTGTACAGGGTCGGAAGACGTTGCAGCGCGCTGAGGGGCAAACCGGTAGATATTCCCGTGCGCGGGCGGACGCTCGGTGGCCGCGCGACGGGTCGCTAGCGTCGGGTGCTGAACTGCATGCGGCGGCCGCCCATGGGGGGCATGACCGGCGGCGGA (double strand) [PdmxB BS1*]”: for the setting “6 nM probe, bound as WT”, the binding result was “binds”. The same measure, in the same setting: to “GCACCACTCCGCTTCATTCGGCTGCTGCGAAATGGCAGGCCGAAAGTCTCGGGTGCCACGCCCTTCCTAAGGCTCCCAACGCCCCTGCGCCCCACGCGCACCCGCCGCCGCCCGGTCCTGCAAGCACACCCCAACGCCCACAACCTTCACCCGAGACCTCCGGCTGCCAAGCCTGTCAGGCTCCGCGAGACGAGGCCTTTCCCCGTCATCCGTGAGCATGGTGCGGGAGCAAGCACCATGCCCCGCGGTGGGGGAGGGCAGTCAGAGTGTTTCCGGGCGGTTGCACACCCTCTGCGTCGCCCTGTTGTACAGGGTCGGAAGACGTTGCAGCGCGCTGAGGGGCAAACCGGTAGATATTCCCGTGCGCGGGCGGACGCTCGGTGGCCGCGCGACGGGTCGCTAGCGTCGGGTGCTGAACTGCATGCGGCGGCCGCCCATGGGGGGCATGACCGGCGGCGGA (double strand) [PdmxB BS2*]” belongs “binds”.

As to “GGCGTGGCTCCTCCAGGGGTTACTGCCACTGGCCCTTCTTCACTTCGAGTTTGAGGCGCTCGGACACCAGCTCGAAGTGCCTGGGCGCGCTGGGCTCGGACGGACCCGCGGGGCCCACCGCGCGCACCGTCCACCGGTAGCTTCCCGCGGGTAGCACTGGCAGCTTCGCTTCCAGGCTGGTGACTGTCTGCGTGAAATTCGCGCGTTGCTCCTGCGCGCGCGACACTTCCACTTCATAACGTTCCGCGCCCCGTACAGCCTCCCAGGTCAGCTTCACCGGGCCCAGGTGCCCGTCCCGGTCGGGGCGTCGCTTCA (double strand) [PpmxA BS1*]”, the binding result under setting [1] is “binds more weakly”. “GGCGTGGCTCCTCCAGGGGTTACTGCCACTGGCCCTTCTTCACTTCGAGTTTGAGGCGCTCGGACACCAGCTCGAAGTGCCTGGGCGCGCTGGGCTCGGACGGACCCGCGGGGCCCACCGCGCGCACCGTCCACCGGTAGCTTCCCGCGGGTAGCACTGGCAGCTTCGCTTCCAGGCTGGTGACTGTCTGCGTGAAATTCGCGCGTTGCTCCTGCGCGCGCGACACTTCCACTTCATATTCTTCCGCGCCCCGTACAGCCTCCCAGGTCAGCTTCACCGGGCCCAGGTGCCCGTCCCGGTCGGGGCGTCGCTTCA (double strand) [PpmxA BS1*/BS2*]”: for the setting “10 nM probe, 1.0 uM MrpC”, the binding result is reported as “no binding”. As for “GGCGTGGCTCCTCCAGGGGTTACTGCCACTGGCCCTTCTTCACTTCGAGTTTGAGGCGCTCGGACACCAGCTCGAAGTGCCTGGGCGCGCTGGGCTCGGACGGACCCGCGGGGCCCACCGCGCGCACCGTCCACCGGTAGCTTCCCGCGGGTAGCACTGGCAGCTTCGCTTCCAGGCTGGTGACTGTCTGCGTGAAGACGGCGCGTTGCTCCTGCGCGCGCGACACTTCCACTTCATAACGTTCCGCGCCCCGTACAGCCTCCCAGGTCAGCTTCACCGGGCCCAGGTGCCCGTCCCGGTCGGGGCGTCGCTTCA (double strand) [PpmxA WT]”, the binding result (10 nM probe, one shifted band at 0.1 uM MrpC, two at 0.5-2.0 uM) is recorded as “binds”.

Regarding “GGCGTGGCTCCTCCAGGGGTTACTGCCACTGGCCCTTCTTCACTTCGAGTTTGAGGCGCTCGGACACCAGCTCGAAGTGCCTGGGCGCGCTGGGCTCGGACGGACCCGCGGGGCCCACCGCGCGCACCGTCCACCGGTAGCTTCCCGCGGGTAGCACTGGCAGCTTCGCTTCCAGGCTGGTGACTGTCTGCGTGAAGACGGCGCGTTGCTCCTGCGCGCGCGACACTTCCACTTCATAACGTTCCGCGCCCCGTACAGCCTCCCAGGTCAGCTTCACCGGGCCCAGGTGCCGAATCCGGTCGGGGCGTCGCTTCA (double strand) [PpmxA BS3*]”, the binding result (10 nM probe, 1.0 uM MrpC, behaved as WT (two bands)) is “binds”.

Turning to “GGCGTGGCTCCTCCAGGGGTTACTGCCACTGGCCCTTCTTCACTTCGAGTTTGAGGCGCTCGGACACCAGCTCGAAGTGCCTGGGCGCGCTGGGCTCGGACGGACCCGCGGGGCCCACCGCGCGCACCGTCCACCGGTAGCTTCCCGCGGGTAGCACTGGCAGCTTCGCTTCCAGGCTGGTGACTGTCTGCGTGAAGACGGCGCGTTGCTCCTGCGCGCGCGACACTTCCACTTCATATTCTTCCGCGCCCCGTACAGCCTCCCAGGTCAGCTTCACCGGGCCCAGGTGCCCGTCCCGGTCGGGGCGTCGCTTCA (double strand) [PpmxA BS2*]”, the binding result under setting [1] was “binds more weakly”.
